Measurements reported in PubChem BioAssay AID1224830 (NIAID, 2016)
Test: 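Regulators of TLR4 signalling towards TNF-alpha in macrophage-like cells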 (primary screen). Cell system: human THP-1 monocytic leukaemia cells, TNF dual-luciferase reporter clone, PMA-differentiated to macrophage-like cells. Knock-down reagent: siRNA pool against human genes, 50 nM. Time to read-out: LPS for 4 h, given about 3 days after siRNA transfection. Conditions: bacterial LPS (TLR4 ligand), 10 ng/ml. Read-out: 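Ratio of firefly to renilla light, scaled to the plate median and expressed as a robust z-score per replicate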. Direction: TNF reporter robust z-score: higher = stronger TNF reporter response to LPS. Call rule: 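Each well counts as active if its z-score is over 2.8 or under -1.5; controls are left without a call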.
Shown is one part, drawn at random, of about 18,000 reagents tested. Of all reagents, about 2,900 (16%) were called active. 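Calls are made per well; low scores hint the gene aids the LPS response, high scores that it dampens it.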 Repeated entries: four replicate wells of each siRNA pool.

target gene | TNF reporter robust z-score | call
SLC9D1 | -0.32 | inactive
SLC9D1 | -0.67 | inactive
SLC9D1 | -0.68 | inactive
SLC9D1 | -0.86 | inactive
OR3A3 | -1.62 | active
OR3A3 | -0.39 | inactive
OR3A3 | -1.72 | active
OR3A3 | 0.33 | inactive
POSTN | -1.59 | active
POSTN | -1.56 | active
POSTN | -1.84 | active
POSTN | -1.75 | active
PROKR1 | 0.43 | inactive
PROKR1 | 0.55 | inactive
PROKR1 | -0.19 | inactive
PROKR1 | 0.63 | inactive
GPR157 | 1.14 | inactive
GPR157 | 0.44 | inactive
GPR157 | 0.14 | inactive
GPR157 | -1.06 | inactive
CAVIN4 | -0.8 | inactive
CAVIN4 | 0.24 | inactive
CAVIN4 | 0.1 | inactive
CAVIN4 | -0.92 | inactive
CERS2 | 0.38 | inactive
CERS2 | 0.16 | inactive
CERS2 | 0.31 | inactive
CERS2 | 0.52 | inactive
RPS15 | -0.31 | inactive
RPS15 | 0.62 | inactive
RPS15 | 0.8 | inactive
RPS15 | 0.21 | inactive
MACIR | 1.55 | inactive
MACIR | 1.42 | inactive
MACIR | 0.46 | inactive
MACIR | 0.99 | inactive
PTPN21 | 0.01 | inactive
PTPN21 | 0.81 | inactive
PTPN21 | 2.2 | inactive
PTPN21 | 1.05 | inactive
STAT2 | 0.09 | inactive
STAT2 | 0.48 | inactive
STAT2 | 0.8 | inactive
STAT2 | 0.51 | inactive
BACC1 | 0.29 | inactive
BACC1 | 1.29 | inactive
BACC1 | 0.01 | inactive
BACC1 | 1.69 | inactive

6 successive reagents already listed:
target gene | TNF reporter robust z-score | call
PTPN21 | 0.01 | inactive
PTPN21 | 0.81 | inactive
PTPN21 | 2.2 | inactive
PTPN21 | 1.05 | inactive
STAT2 | 0.09 | inactive
STAT2 | 0.48 | inactive
